From paper PMC10163288 come the findings set out here.

The other results are listed elsewhere or left out. Bounds are passed on as bounds.

B1: il10ra_site1_sap_24_mot_HHH_b2_02053_af2_000000006_0001_3_19_H_._HHH_b1_02484_0001_0000200018_0000001_0_0001 (protein)
chain: SSSSNREVYELLRRAAEASHEGNLEEAEELVRKAVELAEELNNMVLLAVARYILKRIEELLSSSS
B2: il10ra_site1_sap_20_mot_HHH_b2_00943_af2_000000149_0001_1_17_H_._HHH_b2_02885_af2_0001_0000100001_0000001_0_0001 (protein)
chain: SSSSDEELEEVLRLILEAFRLALRGDEEEARKLLEEALEIAREINDERIAKMIEDLLKALSSSSS
B3: il10ra_site1_sap_28_mot_HHH_b2_00800_af2_000000047_0001_1_20_H_._HHH_b2_05061_0001_0000200029_0000001_0_0001_af2pred_0001 (protein)
chain: SSSSSEEVERVRRLLRKAIELARKGNPEEAEKVLEEAKEIAEEAGNELLRLLLEFAERLIKSSSS
B4: il10ra_site1_sap_18_mot_HHH_b1_06788_af2_000000238_0001_19_36_H_._HHH_b1_07121_0001_0000300019_0000002_0_0001 (protein)
chain: SSSSDEEELRELVEELVKELGLSEEAKRMLEISLERLLEMGQDEREIEEMLRFQARALKASSSSS
B5: il10ra_site1_sap_22_mot_HHH_b1_06789_af2_000000041_0001_1_20_H_._HHH_b2_02160_0001_0000200007_0000001_0_0001 (protein)
chain: SSSDERFEFIKKVIEEIIELLREGDKERAREVLERAREEAEELGNWVMRQVLEHLERVVERSSSS
B6: il10ra_site1_sap_28_mot_HHH_b1_01011_000000096_0001_1_19_H_._HHH_b2_03412_0002_0000100009_0000001_0_0001 (protein)
chain: SSSSDMEEELIRAVIRLLRELNDPEAVRRAEELLEQFEEEGDPEYFREVAQLLWEAARRFDSSSS
B7: il10ra_site1_sap_25_mot_HHH_b1_01879_000000050_0001_1_18_H_._HHH_b1_08444_0001_0000100004_0000001_0_0001 (protein)
chain: SSSSSTQELYELSRKAMELLRNGNPEEAEKLLEEALELAEEEGNWAAIVALRYILRAIRRSSSSS
B8: il10ra_site1_sap_26_mot_8756ee2cf497b5429c717dfc0c0bcfd6_0001_000000186_0001_1_13_H_._HHH_b2_06720_0001_0000100005_0000001_0_0001 (protein)
chain: SSSSDEEEIEELIKRIEELIEEGDQEEALRLLHELVELVAELNDEEALERIQELIQLIFQSSSSS
B9: il10ra_site1_sap_17_mot_HHH_b1_04558_af2_000000002_0001_38_52_H_._HHH_b2_08230_0001_0000100014_0000001_0_0001 (protein)
chain: SSSSSDEEYEEEVEELLEEAKRIEDREEVMRLLLRAIRLAYRAKDAELLRRIWEVLKELSSSSSS
B10: il10ra_site1_normal_mot_HHH_b2_06857_af2_000000179_0001_42_54_H_._HHH_b1_05676_af2_0001_0000100011_0000001_0 (protein)
chain: SSSSDETEEVVELLRRAAELHSDGDHEEARRLLEEAQELAEELGNELLRYQIEFAERSLDSSSSS
B11: il10ra_site1_normal_mot_8756ee2cf497b5429c717dfc0c0bcfd6_0001_000000186_0001_1_13_H_._HHH_b2_00624_0001_0000100003_0000003_0_af2pred_0001 (protein)
chain: SSSSSEEAEELFRLLREAAELHHEGNPEEARELLEEAEELAREAGDLNAEAVIRFLLELAGSSSS
B12: il10ra_site1_sap_18_mot_HHH_b2_01999_000000006_0001_1_18_H_._HHH_b2_08069_af2_0001_0000200010_0000001_0_0001 (protein)
chain: SSSSNAEYLIRQAAKAARLLLEAGDPEEAERALRIAERSAEQENNEELKEEIRRLEEEVRSSSSS
B13: il10ra_site1_sap_13_mot_HHH_b1_05329_000000008_0001_43_56_H_._HHH_b1_01872_af2_0001_0000100004_0000002_0_0001 (protein)
chain: SSSSDEKEELFRAIERLIRQALEWGDEESVEFMLLSLKMLAEELNDPELREITEELEELLNSSSS
B14: il10ra_site1_normal_mot_HHH_b1_06789_af2_000000041_0001_1_20_H_._HHH_b1_00090_af2_0001_0000500014_0000001_0_af2pred_dldesign_0_af2pred (protein)
chain: SSSSSGGRLMTEQALRAARILLEQGYPEEARRALDIARKLAEQLNDPELLARVRALEAELESSSS
B15: il10ra_site1_normal_mot_HHH_b1_00999_000000080_0001_41_55_H_._HHH_b1_06668_af2_0001_0000600034_0000001_0 (protein)
chain: SSSSSSDEREEAEELLEEAKEIEDPEEVSRIIQEALQLAYKANDKELLRELWEFVKKRGSSSSSS
B16: il10ra_site1_normal_mot_HHH_b1_05860_000000142_0001_1_19_H_._HHH_b1_06440_af2_0001_0000300014_0000002_0_af2pred_0001 (protein)
chain: SSSSDVEEVLRLLRRLAELLRENDQEEAKELIEEIEKLIEELNNPLLKFNLERLKRSLKLSSSSS
B17: il10ra_site1_normal_mot_fda5df8c19bda1ddfcc41857df859eb0_0001_1_000000120_0001_35_49_H_._HHH_b2_06918_0001_0000600067_0000001_0_af2pred_dldesign_0_af2pred (protein)
chain: SSSSSAALAARTTALAIEIANLYRAGRPEEARALADAGIAELTAAGDADGVARLQALLALLSSSS
B18: il10ra_site1_sap_15_mot_HHH_b2_00988_000000064_0001_1_19_H_._HHH_b2_07593_0001_0000100004_0000002_0_0001 (protein)
chain: SSSSSEEVYELSKEALELLAEGNPEEAEEVLEQARRLAEEAGDRVVLHNVRFALEDIERENSSSS
B19: il10ra_site1_normal_mot_HHH_b2_07442_000000239_0001_40_54_H_._HHH_b1_06779_0001_0000200029_0000001_0 (protein)
chain: SSSSDEAEEIYRLSREVAELDHEGDREEAERLLEEAIEYAEEVGNLVLLANLEFLRRLLESSSSS

In this assay the target is il10ra, Q13651. Briefly: yeast display titration.
On to B1, for which the “apparent Kd” value was “inactive: no binding seen”.
As for B2, the entry is “inactive: no binding seen”; as for B3, “inactive: no binding seen”.
In the case of B4, the “apparent Kd” value is “inactive: no binding seen”.
As for B5, the figure is inactive: > 40.5 nM.
For the molecule B6, the “apparent Kd” value is “inactive: no binding seen”.
Turning to B7, the “apparent Kd” value is “inactive: no binding seen”.
As for B8, the entry is “inactive: no binding seen”; as for B9, “inactive: no binding seen”; as for B10, “inactive: no binding seen”.
With B11, the “apparent Kd” value was “inactive: no binding seen”.
Consider B12, for which the “apparent Kd” value is “inactive: no binding seen”.
As for B13, the entry is “inactive: no binding seen”.
As to B14, the “apparent Kd” value is “inactive: no binding seen”.
As for B15, the entry is “inactive: no binding seen”.
For B16, the “apparent Kd” value was “inactive: no binding seen”.
As for B17, the entry is “inactive: no binding seen”.
As for B18, the entry is “inactive: no binding seen”.
On to B19, for which the “apparent Kd” value is “inactive: no binding seen”.
